Results from article PMC4596637.

Chains of the proteins cited; added tags and fusions are not shown. Lines headed by an entry give the natural chain unless they say otherwise; changes in a name come on top.
UniProt Q1L8J7: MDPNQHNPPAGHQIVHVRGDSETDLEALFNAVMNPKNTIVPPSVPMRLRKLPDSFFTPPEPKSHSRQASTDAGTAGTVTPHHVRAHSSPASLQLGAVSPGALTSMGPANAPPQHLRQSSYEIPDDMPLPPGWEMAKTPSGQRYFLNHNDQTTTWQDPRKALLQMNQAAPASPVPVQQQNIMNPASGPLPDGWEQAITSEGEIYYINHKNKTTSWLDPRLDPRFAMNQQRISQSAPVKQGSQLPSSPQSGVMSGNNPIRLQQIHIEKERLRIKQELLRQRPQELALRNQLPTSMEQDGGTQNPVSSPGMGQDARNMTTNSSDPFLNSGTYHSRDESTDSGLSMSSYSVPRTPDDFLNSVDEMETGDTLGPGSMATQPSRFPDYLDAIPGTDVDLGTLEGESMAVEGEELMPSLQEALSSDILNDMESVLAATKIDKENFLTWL

Assays:
Experiment in all cases: two-hybrid; Y2H assay, Matchmaker system, AH109 yeast; Amotl2a forms fused to the Gal4 DNA-binding domain (pGBKT7), Yap1/Taz forms fused to the Gal4 activation domain (pGADT7); patched on selective plates lacking histidine, grown 3-4 days
[1] = biological target: T1, zebrafish Amotl2a fused to the Gal4 DNA-binding domain (pGBKT7) (zebrafish) (UniProt A1YB07)
T1 sequence: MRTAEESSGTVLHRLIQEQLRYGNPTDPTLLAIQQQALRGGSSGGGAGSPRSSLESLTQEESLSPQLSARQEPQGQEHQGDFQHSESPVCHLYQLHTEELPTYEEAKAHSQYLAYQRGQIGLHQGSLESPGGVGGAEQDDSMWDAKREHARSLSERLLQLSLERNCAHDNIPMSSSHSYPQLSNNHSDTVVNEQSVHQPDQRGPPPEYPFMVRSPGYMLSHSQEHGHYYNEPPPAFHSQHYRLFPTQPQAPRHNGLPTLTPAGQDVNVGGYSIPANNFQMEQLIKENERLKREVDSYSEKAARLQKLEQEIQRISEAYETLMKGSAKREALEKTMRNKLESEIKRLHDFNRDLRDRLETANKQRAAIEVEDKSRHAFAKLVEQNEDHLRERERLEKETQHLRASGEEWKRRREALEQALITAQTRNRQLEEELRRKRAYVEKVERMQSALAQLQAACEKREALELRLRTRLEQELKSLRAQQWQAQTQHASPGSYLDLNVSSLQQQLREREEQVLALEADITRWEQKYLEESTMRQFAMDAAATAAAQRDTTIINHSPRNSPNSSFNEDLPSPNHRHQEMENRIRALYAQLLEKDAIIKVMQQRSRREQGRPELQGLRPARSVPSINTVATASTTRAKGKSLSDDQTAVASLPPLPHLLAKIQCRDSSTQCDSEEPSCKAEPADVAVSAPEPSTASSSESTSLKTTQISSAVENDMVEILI

[2] = biological target: zebrafish Amotl2a with the LPTY motif mutated (LATA), Gal4 DNA-binding domain fusion (zebrafish) (UniProt A1YB07)
[3] = biological target: zebrafish Amotl2a with the PPEY motif mutated (PPEA), Gal4 DNA-binding domain fusion (zebrafish) (UniProt A1YB07)

| binding [1] | binding [2] | binding [3] | Substance |
| --- | --- | --- | --- |
| binds | – | – | zebrafish Taz fused to the Gal4 activation domain (pGADT7) |
| no binding | – | – | zebrafish TazΔWW fused to the Gal4 activation domain (pGADT7) |
| – | binds | binds | zebrafish Yap1 fused to the Gal4 activation domain (pGADT7) (from UniProt Q1L8J7 1-442) |
| no binding | – | – | zebrafish Yap1ΔWW1,2 fused to the Gal4 activation domain (pGADT7) (from UniProt Q1L8J7) |

These are yes or no findings as the source states them, for the method shown. Binding can be weak; no strength is given. For some assays here: Where a sequence is shown, tags or fusion partners need not be part of it.
